For at least one compound, name, drawing or mass did not settle the structure.
Key:
[1] = system: aldolase c (Aldoc); assay: Aldoc transcripts by quantitative real-time PCR in treated Tbx18-PC/fibroblast cocultures; format: cell-based, rat; conditions: for aldolase c expressions within pacemaker cardiomyocytes: in-vitro, summary statement, concentration not given at the place
Procedure: (§1) The Tbx18-PCs were used as the cell model of pacemaker cardiomyocytes, which were generated by the transduction of VMs with adenoviral human Tbx18 (MOI [multiplicity of infection]: 10; green fluorescent protein [GFP] reporter, ADV-225152, Vector Biolabs, Malvern, USA) for 24 hours (Kapoor et al; Hu et al.). Those with adenovirus-CMV-GFP were used as control VMs (Tsai et al., J Biomed Sci, 2015). For the cocultures of Tbx18-PCs and fibroblasts, a ratio of fibroblasts/VMs ( 1/10) was first plated on fibronectin-coated wells, and adenoviral Tbx18 was transduced for 24 hours one day after seeding to induce PCs. […] Therefore, the beating rates, metabolic and molecular phenotypes, including microelectrode array (MEA), whole transcriptomes, Seahorse analysis, metabolomics, glycolysis metabolites (lactate or DHAP), protein and gene transcripts were analyzed 3-5 days after Tbx18 transduction. The beating rates were recorded by MEA or video. […] Video was analyzed with Q Capture Pro 6.0 (Teledyne Technologies, CA, USA).
For the experiments of drug treatment, Tbx18-PCs after re-expression of Tbx18 were treated with sodium pyruvate (1 mM, 11360-070, Thermo Fisher Scientific, 3 days), 2-deoxy-D-glucose (2-DG, 5 mM, D8375, Sigma-Aldrich, 3 days), wortmannin (PI3K inhibitor, 100 nM, 12-338, Merck Millipore, MA, USA, 4 days), anti-integrin β1 monoclonal antibody (ltgb1, MAB1987Z, 10 μg/mL, Merck Millipore, 2 days), or SB203580 (p38-MAP kinase inhibitor, 559389, 1 μM, Merck Millipore, 3 days), respectively. Then the beating rate and gene expression were analyzed. […]
Total RNA was extracted from cultured VMs using the RNeasy® Mini Kit (74106, Qiagen, Venlo, Netherlands). […] Quantitative real-time PCR (qRT-PCR) was performed using Applied Biosystems™ StepOnePlus Real-Time PCR system with TaqMan probe assays (4331182, Invitrogen, Waltham, Massachusetts, USA) and PrimeTime qPCR Probe Assays (Integrated DNA Technologies, Inc., Coralville, Iowa, USA). […] The relative values of gene transcripts were analyzed by ΔΔCt method. […]

[2] = system: Tbx18-induced pacemaker cardiomyocytes; assay: Beating rate / electrical firing rate of Tbx18-induced pacemaker cardiomyocytes (video or MEA); format: cell-based, rat; conditions: for beating rates: in-vitro, summary statement, concentration not given at the place
Procedure: as §1
For the experiments of drug treatment, Tbx18-PCs after re-expression of Tbx18 were treated with sodium pyruvate (1 mM, 11360-070, Thermo Fisher Scientific, 3 days), 2-deoxy-D-glucose (2-DG, 5 mM, D8375, Sigma-Aldrich, 3 days), wortmannin (PI3K inhibitor, 100 nM, 12-338, Merck Millipore, MA, USA, 4 days), anti-integrin β1 monoclonal antibody (ltgb1, MAB1987Z, 10 μg/mL, Merck Millipore, 2 days), or SB203580 (p38-MAP kinase inhibitor, 559389, 1 μM, Merck Millipore, 3 days), respectively. Then the beating rate and gene expression were analyzed.
Tbx18-PCs or human IPS-CMs were transduced with human Aldoc adenovirus (CMV promotor, 068583A, Applied Biological Materials, Richmond, BC, Canada), and CMV-null adenovirus was used as a control (000047A, Applied Biological Materials) for 24 hours. […] The protein, gene transcripts, and beating rates were analyzed 3 days after transduction. […]
MEA was used to record electrical firing in Tbx18-PCs, Tbx18-PC tissue sheets, or human IPS-CMs. […] The electrical firing rates were recorded by Maestro Edge (Axion BioSystems). […]

COC[C@H]1OC(=O)c2coc3c2[C@@]1(C)C1=C(C3=O)[C@@H]2CCC(=O)[C@@]2(C)C[C@H]1OC(C)=O [wortmannin]
increased: aldolase c expressions within pacemaker cardiomyocytes [1] | Aldoc expression ([1]; wortmannin 100 nM, 4 days, PC cocultures, vs control) | beating rate ([2]; Wortmannin 100 nM, 4 days, vs control, P=0.017) | beating rates [2]

C[C@H](Nc1ncnc2nc[nH]c12)c1cc2cccc(Cl)c2c(=O)n1-c1ccccc1 [Duvelisib]
increased: aldolase c expressions within pacemaker cardiomyocytes [1] | beating rates [2]

Reference: patent US20250041422A1, “METHOD OF TREATING ARRHYTHMIA, POPULATION OF PACEMAKER CARDIOMYOCYTES, AND METHOD OF TREATING CARDIAC ARRHYTHEMIA USING POPULATION OF PACEMAKER CARDIOMYOCYTES” (priority 2022, published 2025)
